# Reference: patent US20100048686A1, “Perfume Composition For Temperature Sense Control, Sense Control Article, Sense Control Method, And Perfume Map” (SHISEIDO CO., LTD., priority 2003, published 2010)
# The amount applied is not stated for every result.
# System: test subjects
# Assay: assessment of temperature image and aroma image words of raw material perfumes on odor paper/cotton
# Assay type: in vivo, human
# Settings: average; for Aroma image word: Transparent: seven-point scale 0 (do not feel at all) to 6 (strongly feel); for Aroma image word: Bracing / Aroma image word: Bright / Aroma image word: Mild / Aroma image word: Sultry / Aroma image word: Sweet / Aroma image word: Thick: seven-point scale 0 to 6
structure (smiles),measurement,value
"CC(C=O)Cc1ccc(C(C)(C)C)cc1 (stereo not drawn) [B, 4-tert-butyl-α-methylhydroxycinnamic aldehyde]",Aroma image word: Transparent,3.8
same,Aroma image word: Bracing,2.8
same,Aroma image word: Bright,3.8
same,Aroma image word: Mild,3.6
same,Aroma image word: Sultry,2.1
same,Aroma image word: Sweet,3.6
same,Aroma image word: Thick,2.2
"COc1cc(C=O)ccc1O [C, vanillin]",Aroma image word: Transparent,2.0
same,Aroma image word: Bracing,1.2
same,Aroma image word: Bright,3.6
same,Aroma image word: Mild,4.5
same,Aroma image word: Sultry,3.2
same,Aroma image word: Sweet,4.9
same,Aroma image word: Thick,3.8
"CC1=CC(C)C(C=O)CC1 (stereo not shown) [E, 2,4-dimethyl-3-cyclohexenyl carboxyaldehyde]",Aroma image word: Transparent,3.2
same,Aroma image word: Bracing,2.9
same,Aroma image word: Bright,3.1
same,Aroma image word: Mild,2.5
same,Aroma image word: Sultry,1.6
same,Aroma image word: Sweet,2.6
same,Aroma image word: Thick,2.1
"CCCCCCCC1CCC(=O)O1 (stereo not shown) [G, γ-undecalactone]",Aroma image word: Transparent,2.6
same,Aroma image word: Bracing,1.5
same,Aroma image word: Bright,4.1
same,Aroma image word: Mild,3.9
same,Aroma image word: Sultry,2.1
same,Aroma image word: Sweet,4.3
same,Aroma image word: Thick,2.9
